Source: patent US11603387B2, “SOCS mimetics for the treatment of diseases” (UNIVERSITY OF FLORIDA RESEARCH FOUNDATION, INC., priority 2014, dated 2023)
At least one structure is not confirmed: it was looked up by name or label, or the drawing left a doubt.

System: SOCS1
Experiment: SOCS1 expression (qPCR, relative to GAPDH) in healthy control PBMCs treated in vitro
Assay type: cell-based, human
Settings: dexamethasone for 3, 6, 12, or 24 h
Protocol: FIGS. 9A and 9B. SOCS1 expression is not affected by chloroquine treatment, but is increased by dexamethasone treatment. (FIG. 9A) PBMCs, taken from healthy controls, were treated with (FIG. 9A) chloroquine diphosphate salt at the indicated molar concentrations for 12 and 24 h or (FIG. 9B) dexamethasone at the indicated molar concentrations for 3, 6, 12, or 24 h. Post treatment, SOCS1 expression, relative to GAPDH, was assessed via qPCR. Results shown as mean±s.e.m. The Kruskal-Wallis test followed by the Dunn's Multiple Comparison Test was chosen to assess statistical significance. (*P<0.05).
PBMCs were purified from heparinized blood by Ficoll-Paque gradient centrifugation. Briefly, whole blood was diluted with PBS (1:1) and gently layered on the Ficoll (Lymphocyte Separation Medium; Cellgro, Manassas, Va.). […]
Using the Promega RNA extraction protocol, total RNA was extracted from human PBMCs ex vivo or from mouse CD4^+CD25^− cells after being cultured under control (anti-CD3 and anti-CD28) or Th17 inducing conditions in the presence or absence of SOCS1-KIR peptide. cDNA synthesis and qPCR were performed as described in (Collins et al. 2011), with modifications. […] The amplification reactions took place in a PTC-200 Peltier Thermal Cycler with a CHROMO 4 Continuous Fluorescence Detector (BioRad). […] The fold change in expression was calculated using the ΔΔCT method.

## C[C@@H]1C[C@H]2[C@@H]3CCC4=CC(=O)C=C[C@]4(C)[C@@]3(F)[C@@H](O)C[C@]2(C)[C@@]1(O)C(=O)CO [dexamethasone]
  SOCS1 expression: increased
